Experimental data reported in patent US20060265776A1, “Viability” (priority 2003, published 2006).
Some results were stated once for a whole list of compounds, not compound by compound.

Tested on: Arabidopsis thaliana cell suspension cultures
Assay: Extracellular ATP assay (luciferin/luciferase) in cell suspension culture medium
Type: cell-based
Conditions: within 25 hours of commencing treatment; 100 units/mL apyrase or 200 units/mL hexokinase, glucose added

In the case of apyrase, the “extracellular ATP levels, of the amount in the control cultures” value is reported as “below 5%”.
